Patent publication US20030108612A1, “Metallic nanoparticles for inhibition of bacterium growth” (priority 2001, published 2003)
Some of these results come from one statement about several compounds together. At least one structure is not confirmed: it was looked up by name or label, or the drawing left a doubt.

Tested on: P. aeruginosa, WT, na1B and ΔABM
Test: Overnight culture, absorbance at 600 nm by UV-vis spectroscopy (MIC)
Type: cell-based, Pseudomonas aeruginosa
Details: antibiotic concentration 0.313 g/mL, three strains
Description: After the overnight incubation, the absorbance of the […] an UV-vis spectrometer to determine the concentrations of bacterial cells based upon the light scattering of bacterial cells for the three strains of P. aeruginosa, WT, na1B and ΔABM. For each strain of P. aeruginosa cells and each concentration of the silver coated gold particles, the absorbances of 5 samples of the culture medium were measured with the absorbance of each sample measured 3 times and the average absorbance was calculated. The absorbance of ultra-pure water containing the corresponding concentration of silver coated gold particles was subtracted from the average absorbance and the resulting absorbance was plotted in FIG. 1 versus the concentrations of the silver coated gold particles used in the incubation. […] Thus, the MICs of the silver coated gold particles were determined to be about 20 pM for these three strains of P. aeruginosa.
With a UV-vis spectrometer, the absorbance of each sample of the culture medium was measured at 600 nm after the overnight incubation to determine the P. aeruginosa cell concentration based upon light scattering of cells. For each strain of P. aeruginosa cells, the absorbances of 4 samples of the P. aeruginosa culture medium containing azthreonam or gentamicin at a concentration of 0.313, 3.13, 15.65 or 31.3 μg/mL were measured. […]

With gentamicin the “absorbance at 600 nm” value was no less than 0.08.

In the case of C[C@H]1[C@H](NC(=O)/C(=N\OC(C)(C)C(=O)O)c2csc(N)n2)C(=O)N1S(=O)(=O)O [azthreonam], the “absorbance at 600 nm” value is reported as no less than 0.08.
